In paper PMC12886896:
Results are given in words; binding and its absence hold for the method and conditions named. In cells and extracts the contact can be indirect. These calls come from enrichment with a bait or labelling near it, and not all partners need be listed.

Molecular target: SET-24::3xFLAG (C. elegans)
Test: affinity purification with mass spectrometry; anti-FLAG antibody (F1804) and Dynabeads Protein G on 2 mg extract of young adult SET-24::3xFLAG worms, wild-type N2 as control; wash buffer 25 mM Tris/HCl pH 7.5, 300 mM NaCl, 1.5 mM MgCl2, 1 mM DTT; 4 °C; quadruplicates

binding: binds
B1: Host Cell Factor 1 (HCF-1) (protein, UniProt G5EC23 1-782)
chain: MDEDVGLEATNYSRGDESRSEEQEKNVVRWRIVQQSTGPNPKPRHGHRAVVLKELIVIFGGGNEGMIDELHAYNTQKREWTAPQCCGDVPTPAAAFGAISLGNKIYRFGGMTEYGKYTNDLYELQSTRWEWRRLNPRVHSNGHLPCPRIGHSFVVSQKSQKAYVFGGLSNDLNDPKRNVPHYLDDLYVINLSGPQHLIWEKLNATGPGPISRESHTAVIYEKDSISRMVVYGGMNGVRLGDLWYLNLNTLHWTEIKFDDPRTGIPPMPRSLHSSVLIGDKMFVYGGWVPLLEHASTEQQTEKEWKCTSSLGCWNITEDRWVPLHLYCSDEDTIPRGRAGHCAAAVGDRMYIWSGRDGYRKAWSNQVCCRDMWLLDTILPEQPGKVQLGRAGFNSLEISWPIVQGASGYFLQIGFGDAKEQSVSPIKRATTSPRKQPSIVPPSQKETEQSPKKPQGTAPSIISTQGTTYTAPADPKPATDEGGLPQDLFEDTEKNETASPKRSNDAQSADSSTCEQKKTDESGLEEDSEKDQKPSDAGETDEMKEENGDDDLPWFDVGIIDKATINVTHYFNDRQQSLEKQLNDLIDHNAFKCVNDSVFTTEDKIPLINGQSYRFRVSAINGLGKGAWSETASCKTCVPGYPSAPSSIRITKSHEGAQLTWEPPSNTNISGKIIEYSVYLAVKNQSANSADSQLAFMRVYCGPQADCQVLQSNLGTAFVDQTNKPAIIFRIAARNEKGYGPATQVRWLQDQQKIPVRTNYPNNSGFIYQQHGGQQKRARFDHQ
